In PMC7862700 one finds binding signal data, which are given here for 38 sequences.

Protein sequences, listed by entry. Tags and fused reporters are not part of them. Lines headed by an entry give the natural chain unless they say otherwise; changes in a name come on top.
UniProt Q01892: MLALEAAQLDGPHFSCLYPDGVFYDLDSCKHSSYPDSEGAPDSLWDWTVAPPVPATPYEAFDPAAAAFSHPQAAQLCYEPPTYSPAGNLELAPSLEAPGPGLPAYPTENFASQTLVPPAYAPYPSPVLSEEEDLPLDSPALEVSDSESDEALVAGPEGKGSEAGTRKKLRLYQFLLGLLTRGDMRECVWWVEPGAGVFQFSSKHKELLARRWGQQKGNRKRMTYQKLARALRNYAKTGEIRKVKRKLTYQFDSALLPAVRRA

Only a part is listed here, and it is no random draw. For some assays here: At the low end of the ranking the order means little.

The target in one experiment is T1, EHF (UniProt Q9NZC4).
T1 sequence: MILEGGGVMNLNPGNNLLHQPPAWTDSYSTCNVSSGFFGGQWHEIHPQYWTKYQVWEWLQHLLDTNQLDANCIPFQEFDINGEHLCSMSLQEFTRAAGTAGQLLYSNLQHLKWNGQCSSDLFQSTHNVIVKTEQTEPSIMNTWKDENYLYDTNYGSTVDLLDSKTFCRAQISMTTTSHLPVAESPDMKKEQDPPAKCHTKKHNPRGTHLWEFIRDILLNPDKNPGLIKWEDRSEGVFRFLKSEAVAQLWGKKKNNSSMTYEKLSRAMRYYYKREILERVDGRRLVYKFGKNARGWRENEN
The experiment is described as follows: DAPPL (digital affinity profiling via proximity ligation, sequencing). Conditions: 10 mM Tris-HCl pH 7.5, 50 mM NaCl, 1 mM DTT, 4% glycerol, room temperature, 30 min; GST-TFs on glutathione beads, 16-mer random dsDNA library, 0.1% …; high values mean tight binding; double strand, one strand shown; scale: fold enrichment (6-mer frequency, TF over GST control).
Turning to TTAACG, the binding signal was determined as 1.15.

CTAAGC returned a binding signal of 1.14.

Consider CGTTCG, for which the binding signal came to 1.25.

In turn, TTGCGT had a binding signal of 1.01.

Sequence ATAGTA showed a binding signal of 1.22.

For ATCAAT, the binding signal is 1.02.

For the sequence GACCTC, the binding signal worked out at 1.31.

The sequence TTCTGC returned a binding signal of 1.46.

Consider CCGAAG, for which the binding signal worked out at 1.03.

AGCTAC gave a binding signal of 1.22.

CTTACC registered a binding signal of 1.17.

The sequence CCTCTA came in with a binding signal of 1.31.

GACCTT registered a binding signal of 1.46.

For the sequence TTCAGT, the binding signal amounted to 1.04.

In turn, GTCTCA showed a binding signal of 1.32.

Turning to CCGCCC, the binding signal was 1.29.

TTCTCC: the binding signal is 1.62.

Take TCTCAC: the binding signal turned out to be 1.39.

The sequence TACCAC had a binding signal of 1.23.

On to TACCCA, for which the binding signal turned out to be 1.05.

In the case of TTCAGC, the binding signal was found to be 1.25.

In turn, TAACAC yielded a binding signal of 1.21.

For GCACCC, the binding signal came to 1.01.

The sequence GCCTTT came in with a binding signal of 1.35.

ACCGGA: the binding signal worked out at 3.2.

On to AAGGAA, for which the binding signal amounted to 1.48.

The sequence TCTCAA yielded a binding signal of 1.19.

As to CCCGGA, the binding signal was 2.95.

Consider CTCATG, for which the binding signal came to 1.23.

TAGTAA: the binding signal turned out to be 1.03.

In turn, CTCTAA returned a binding signal of 1.41.

The sequence GCTGAA yielded a binding signal of 1.1.

The target in another experiment is SPIB (UniProt Q01892). The experiment is described as above. Conditions: 10 mM Tris-HCl pH 7.5, 50 mM NaCl, 1 mM DTT, 4% glycerol, room temperature, 30 min; GST-TFs on glutathione beads, 16-mer random dsDNA library, 0.1% …; high values mean tight binding; double strand, one strand shown; scale: fold enrichment (6-mer frequency, TF over GST control).
TAGTCC: the binding signal is 1.06.

For the sequence GGAATT, the binding signal worked out at 1.18.

On to CGTTAC, for which the binding signal came out at 1.11.

CTGCGA: the binding signal was determined as 1.45.

CAACAA: the binding signal is 0.992.

AACGTA gave a binding signal of 0.953.

The next experiment deals with T2, ETV3L (UniProt Q6ZN32).
T2 sequence: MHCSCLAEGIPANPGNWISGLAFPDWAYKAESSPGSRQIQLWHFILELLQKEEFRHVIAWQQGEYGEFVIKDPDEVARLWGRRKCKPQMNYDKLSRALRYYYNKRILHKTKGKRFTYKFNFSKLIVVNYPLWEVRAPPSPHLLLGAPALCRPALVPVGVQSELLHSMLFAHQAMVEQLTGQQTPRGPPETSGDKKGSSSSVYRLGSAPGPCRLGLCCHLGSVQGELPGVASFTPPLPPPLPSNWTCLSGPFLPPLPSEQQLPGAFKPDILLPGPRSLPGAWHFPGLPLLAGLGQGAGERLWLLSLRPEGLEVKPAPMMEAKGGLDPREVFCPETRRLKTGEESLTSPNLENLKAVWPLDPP
The description is as above. The settings on record: 10 mM Tris-HCl pH 7.5, 50 mM NaCl, 1 mM DTT, 4% glycerol, room temperature, 30 min; GST-TFs on glutathione beads, 16-mer random dsDNA library, 0.1% …; high values mean tight binding; double strand, one strand shown; scale: fold enrichment (6-mer frequency, TF over GST control).
With TAGTCC, the binding signal was 1.12.

Sequence GGAATT showed a binding signal of 0.982.

CGTTAC registered a binding signal of 1.18.

As to CTGCGA, the binding signal worked out at 1.4.

CAACAA registered a binding signal of 0.992.

AACGTA returned a binding signal of 0.975.
